From paper doi:10.1101/2021.11.29.470412
Results are given in words; binding and its absence hold for the method and conditions named. Binding seen in cells or lysates may run through a third protein. A result given as binding can be weak or reduced; the word gives no strength.

Tests used:
[1] = biological target: Vrl1-3HA (overexpressed) (S. cerevisiae); assay: co-IP
[2] = biological target: Vrl1^D373A-Envy (S. cerevisiae); assay: co-IP

B1: Vin1 (co-IP with overexpressed Vrl1-3HA, Figure 3C) (protein, UniProt P36158 1-585)
chain: MENDKASHASPSIGVNEFVVQGEISIDDSERSVKSVSVSISDDEDSKTDVQDNMATPSTRSKFQTDLAIDNRLLEKDPKYKKLFTEKRRRRRPESCINLMTKGKGTGQKDNINDQIFSLRILPGSDLNSLKDSLWIIKISTQPDVEKTIARAFSDFYWLYHQLQNNHWGKTIPPPTRSNILVEKDEFAINHLFMIRNNEKYDPIFNFKPEYIISLQLMAMIKHIFNDKVLRLDSNFIDFISWDDDLPESLQIVVDDSTFTGDKILMTSSQFRELKEFHKQSKKVESITNSHASLIPVTELTEIYISPTKLFSRKDYQRLFQPQSTDNTFNNNDPLIQEWIPKSKTLFTSLSFGSSAPTYQEASTEIQACHDWVSISKEQWKQLLYHVLQYIVDEAVKVNSVINEFTECLKQISLDEVIRANSELFLKFSKLNESFLKKFKGASRQDILKLIILFDENVRFCESFESILNQRLKLGKILSIIEVDLDKKKNFLDKLSPGNNNSNNEDLKIRTAEDEYRIVLKRYNRVKQSWEKIMEDILNERKEFEKREAAEVNSCLKSIRDLNMDEKKHYLQLWQDFVPDEHISQ
binding [1]: binds

B2: Vin1-3HA (protein, UniProt P36158 1-585)
chain: MENDKASHASPSIGVNEFVVQGEISIDDSERSVKSVSVSISDDEDSKTDVQDNMATPSTRSKFQTDLAIDNRLLEKDPKYKKLFTEKRRRRRPESCINLMTKGKGTGQKDNINDQIFSLRILPGSDLNSLKDSLWIIKISTQPDVEKTIARAFSDFYWLYHQLQNNHWGKTIPPPTRSNILVEKDEFAINHLFMIRNNEKYDPIFNFKPEYIISLQLMAMIKHIFNDKVLRLDSNFIDFISWDDDLPESLQIVVDDSTFTGDKILMTSSQFRELKEFHKQSKKVESITNSHASLIPVTELTEIYISPTKLFSRKDYQRLFQPQSTDNTFNNNDPLIQEWIPKSKTLFTSLSFGSSAPTYQEASTEIQACHDWVSISKEQWKQLLYHVLQYIVDEAVKVNSVINEFTECLKQISLDEVIRANSELFLKFSKLNESFLKKFKGASRQDILKLIILFDENVRFCESFESILNQRLKLGKILSIIEVDLDKKKNFLDKLSPGNNNSNNEDLKIRTAEDEYRIVLKRYNRVKQSWEKIMEDILNERKEFEKREAAEVNSCLKSIRDLNMDEKKHYLQLWQDFVPDEHISQ
binding [2]: binds

B3: Vps5 (co-IP with Vrl1, Figures 3C and 3D) (protein, UniProt Q92331 1-675)
chain: MDYEDNLEAPVWDELNHEGDKTQSLVSNSIESIGQISTNEERKDNELLETTASFADKIDLDSAPEWKDPGLSVAGNPQLEEHDNSKADDLINSLAPEQDPIADLKNSTTQFIATRESGGALFTGNANSPLVFDDTIYDANTSPNTSKSISGRRSGKPRILFDSARAQRNSKRNHSLKAKRTTASDDTIKTPFTDPLKKAEKENEFVEEPLDDRNERRENNEGKFTASVEKNILEQVDRPLYNLPQTGANISSPAEVEENSEKFGKTKIGSKVPPTEKAVAFKVEVKDPVKVGELTSIHVEYTVISESSLLELKYAQVSRRYRDFRWLYRQLQNNHWGKVIPPPPEKQSVGSFKENFIENRRFQMESMLKKICQDPVLQKDKDFLLFLTSDDFSSESKKRAFLTGSGAINDSNDLSEVRISEIQLLGAEDAAEVLKNGGIDAESHKGFMSISFSSLPKYNEADEFFIEKKQKIDELEDNLKKLSKSLEMVDTSRNTLAASTEEFSSMVETLASLNVSEPNSELLNNFADVHKSIKSSLERSSLQETLTMGVMLDDYIRSLASVKAIFNQRSKLGYFLVVIENDMNKKHSQLGKLGQNIHSEKFREMRKEFQTLERRYNLTKKQWQAVGDKIKDEFQGFSTDKIREFRNGMEISLEAAIESQKECIELWETFYQTNL
binding [1]: no binding

B4: Vps17 (co-IP with Vrl1-3HA, Figure 3C) (protein, UniProt P32913 1-551)
chain: MTSAVPYDPYDDLDNNPFAEPQEEDSEPAATTTDGSSSMSEERVGTEQTAASVQDNGTANNIQNGLGEEGNATRSKTSNEHNENQQPSQPSERVILPERSDEKKKYTLLAKVTGLERFGSATGKKENPTIIFDCSTNLPTFRKQQYKNVKKSYEEFHQLFKYLNVAIQESFVPTLPSAYTTFGINSEEDRMKVTRNFQLWFNRLSQDPLIIRNEEVAFFIESDFNTYTPINKSKSLASGLKRKTLKQLAPPYDEITELAEFRPLVKSIYVVSQSLQEKLLRVSRNRKMMVQEENAFGQDFVNLDEHNKLYRRYGKILTAVGDIDSIIATMDMATLYDGLEWIVRDAYAVKEALTNRHFIMRNLVQAQQNSKAKQEQARRFRSRRDINPMKIDEALRQLKAAAKNEQVLTLKLQRITSNMIIERKQWISWYEEWIRSSIKEFTLRKIEYERKKLTLLERVRSDIRKADENGGLSRLGRHAVSNNNSDTSQTLKGDSWTGESNRKSQIPINKIAHTEFDDELFTEDDGYNSQDSDTTSLNARHAASLLGMSTK
binding [1]: no binding

B5: Mvp1 (co-IP with Vrl1-3HA, Figure 3C) (protein, UniProt P40959 1-511)
chain: MDNYEGSDPWNTSSNAWTKDDDHVVSTTNSEPSLNGISGEFNTLNFSTPLDTNEEDTGFLPTNDVLEESIWDDSRNPLGATGMSQTPNIAANETVIDKNDARDQNIEESEADLLDWTNNVRKTYRPLDADIIIIEEIPEREGLLFKHANYLVKHLIALPSTSPSEERTVVRRYSDFLWLREILLKRYPFRMIPELPPKRIGSQNADQLFLKKRRIGLSRFINLVMKHPKLSNDDLVLTFLTVRTDLTSWRKQATYDTSNEFADKKISQEFMKMWKKEFAEQWNQAASCIDTSMELWYRITLLLERHEKRIMQMVHERNFFETLVDNFSEVTPKLYPVQQNDTILDINNNLSIIKKHLETTSSICKQETEEISGTLSPKFKIFTDILLSLRSLFERYKIMAANNVVELQRHVELNKEKLESMKGKPDVSGAEYDRIKKIIQKDRRSIIEQSNRAWLIRQCILEEFTIFQETQFLITRAFQDWAKLNSNHAGLKLNEWEKLVTSIMDMPISRE
binding [1]: no binding

B6: Snx4 (co-IP with Vrl1-3HA, Figure 3C) (protein, UniProt P47057 1-423)
chain: MTDKGKNDLTSKAKDKARGNPEKPPYWFEIIVSDPQKRTGDPGSSSGYVSYQISTKTNNTSFYDNRGDPESIIVVHRRYSDLLLLHDILLNRFPTCIIPPLPDKKVFQYIAGDRFSQRFTQKRCHSLQNFLRRVSLHPDLSQSKVFKTFLVSKDWESHRKVLQDSLQPNKDEVTDAFMNAFKTVHKQNEEFTEIREKSDKLDRTVTKIDKLFHKVVKKNDSMSEDYTKLGSNLQELQELVTGENEELAAKLKIFNEGVTQLSYGLQDLTKYLDYEYIVDLKDLEHYIDSMRQLIKLKDQKQIDYEELSDYLTRSIKEKNNLISGYGGSNFFANKLEELAGINQEASRREKINKLEGKITSLTGELENAKKVADGFEQECLKEIDHFESVKTAEIKKSLGSLADHHIEFYERILEAWEKVDDSL
binding [1]: no binding

B7: Snx41 (co-IP with Vrl1-3HA, Figure 3C) (protein, UniProt Q04053 1-625)
chain: MDYNIFEAVHEQQSSTSDMDLSEEDNNPFVGTHHLYASGIGTTIGEARPENENSPPSSSSLPSSPAHSSSAGSSRASTSSSTSSHAVVEADAETEPFVSLSMSTTATISKFTPHDMNGTQQIQIIDAGDFKDPWGKHAIGYVILYENNKIIRRYSEFHSLRQSLTRLLPTIIIPPIPSKHSLLKYIWSPINAANDSKIISTRKKMLNSFLSNCLNIQEISNDIVFQKFLNPEFNWKDVLSSSPIIILPLNNLLAPPLSPTKPSPLHSILPIPSNSSLRNYNSIWQQHITVKSHNEISNLPTEILQNESQFTHIENLFQNYKRIITHLLKNIRSNKSHFHSLSTYFAELGAYYNAFSLENDITMPNSLRESENNSNNPMMEIISHIEKTGHSFDVIYISSEILIEKYTSILEDPINELLQFLNESFKVLNFKKLKFLQFKILERLIIEKETKLSSLTEIENQLQKINESLTRSTILTDENYKDTKAADLTFVKKDVRSLSKSSSNSSSSGHQNEIHIGASKLNYKTSTPTMNLNKLEIKQLTEQERSKQIKQLNQDLSKLKDCLSICISDMLEINNSSYNSLMHTYNHINLTIGKILKLFAASFKAWIKECLKNWKLAKLQIDEAL
binding [1]: no binding

B8: Atg20 (co-IP with Vrl1-3HA, Figure 3C) (protein, UniProt Q07528 1-640)
chain: MSDLNDVQENAKLNSETRNTGKAEPPHGTTEYVAEAEISKNGVGSPKKSPKKGKVGKGDNNKVETELVHTALLEKDNPFMEEGPTGFTKSALLEIPGMRSHNLKNPNEDYEDDSEGLLPLNQESNAETCRTSLSGSINSMNGETSASEEPSVSNRKKSARIHILEAKRVSEGQGRAYIAYVIQFENSTVQRRYSDFESLRSILIRLFPMTLIPPIPEKQSIKNYGKSITGSSSKYLLPSEGSGSVDLSLSVIHASVNNSDEKLIRHRIRMLTEFLNKLLTNEEITKTSIITDFLDPNNHNWHEFVNSSSTFSSLPKSILQCNPLDPTNTTRIHAMLPIPGSSSQLLLNKESNDKKMDKERSKSFTNIEQDYKQYENLLDNGIYKYNRRTTKTYHDLKSDYNEIGEVFAQFAHEQAQVGELAEQLSYLSNAFSGSSISLEKLVGRLYYNINEPLNESVHMATSARELIKYRKLKYLQNEMIKKSLNSKRAQLEKLEAQNNEYKDVDKIIDNEMSKSHTINLERPNNNTGSGGKSYGGKLFNGFNKLASMVKDSVKYQETDPHTASINLKKEIEQLSESLEVTENDLEVISKVIKNDQLPKFSKEREVDLSEILKHYSRYMRNYARQNLEIWKEVKRHQDFA
binding [1]: no binding
